# Source: publication PMC3171469, “Multiple ETS Family Proteins Regulate PF4 Gene Expression by Binding to the Same ETS Binding Site”
# The exact form of at least one protein or probe is not confirmed. No signal at the amounts used counts as a negative.
# Legend:
# GABPalpha + GABPbeta = experiment: EMSA; details: 2 mM HEPES-NaOH pH 7.9, 5 mM KCl, 2% glycerol, 0.01 mM EDTA, 0.25 mM DTT, 0.1 mg/ml BSA, 5 ng/ul poly dI-dC, 50 fmol probe, 40 min at 4 C, 4% native gel, 0.5x TBE, protein translated in vitro
# GABPalpha + GABPgamma = experiment: EMSA; details: 2 mM HEPES-NaOH pH 7.9, 5 mM KCl, 2% glycerol, 0.01 mM EDTA, 0.25 mM DTT, 0.1 mg/ml BSA, 5 ng/ul poly dI-dC, 50 fmol probe, 40 min at 4 C, 4% native gel, 0.5x TBE, protein translated in vitro
# [1] = mix of GABPalpha, beta and gamma, label: 32P as probe, unlabelled as competitor
Sequence,"binding result (GABPalpha + GABPbeta; band alpha/beta, label: 32P)","binding result (GABPalpha + GABPgamma; band alpha/gamma, label: 32P)",binding result (GABPalpha + GABPbeta; [1]),binding result (GABPalpha + GABPgamma; [1])
CCCGGGTTTCCGGACTGGGCTG (double strand) [-51 ETS],binds,binds,–,–
CCCGGGTCGGTGGACTGGGCTG (double strand) [-51 ETSmut],–,–,no binding,no binding
